Experimental data from patent US20250032543A1 (CHILDREN S HOSPITAL OF PHILADELPHIA, published 2025).
No constants are given. Whether binding was seen depends on the method and setting. Some binding calls cover weakened binding; strength is not graded here. Tags and fused reporters may be left off the sequences shown.

Molecular target: T1, recombinant human GPC2 protein tagged with PE (human) (UniProt Q8N158)
T1 sequence (PE (phycoerythrin) tag, looked up): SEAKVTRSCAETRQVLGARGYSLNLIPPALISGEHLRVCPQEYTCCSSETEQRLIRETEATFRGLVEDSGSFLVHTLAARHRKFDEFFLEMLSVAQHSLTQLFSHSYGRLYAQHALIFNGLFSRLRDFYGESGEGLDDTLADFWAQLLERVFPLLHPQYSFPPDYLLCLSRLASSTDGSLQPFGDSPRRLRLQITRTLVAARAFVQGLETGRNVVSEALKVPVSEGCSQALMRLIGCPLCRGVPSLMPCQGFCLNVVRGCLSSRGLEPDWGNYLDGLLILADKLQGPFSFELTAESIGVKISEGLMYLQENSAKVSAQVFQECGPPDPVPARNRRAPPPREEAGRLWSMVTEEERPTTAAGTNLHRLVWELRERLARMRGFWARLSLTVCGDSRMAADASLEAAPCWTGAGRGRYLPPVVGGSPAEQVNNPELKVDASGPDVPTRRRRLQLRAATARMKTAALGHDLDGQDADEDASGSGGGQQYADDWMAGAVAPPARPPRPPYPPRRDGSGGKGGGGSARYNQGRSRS
Test: flow cytometry of transduced human primary T cells (day 14) stained with PE-tagged rhGPC2

binding: binds
B1: GPC2-targeting chimeric antigen receptor (D3 scFv, CD28 hinge/transmembrane/co-stimulatory domains, CD3 zeta) on human primary T cells (protein)
chain: PDIQMTQSPSTLSAFVGDRVTITCRASQSISSWLAWYQQKPGKAPKLLIYAASTLQSGVPSRFSGSGSGTEFTLTISSLQPEDFATYYCQQLNSYPITFGQGTRLEIKRGGGGSGGGGSGGGGSEVQLVETGGGVVKPGGSLRLSCAASGFTFSDYYMSWIRQAPGKGLEWVSYISSSGSTIYYADSVKGRFTISRDNSKNTLYLQMNSLRAEDTAVYYCARESGYDYVFDYWGQGTLVAVSSIEVMYPPPYLDNEKSNGTIIHVKGKHLCPSPLFPGPSKPFWVLVVVGGVLACYSLLVTVAFIIFWVRSKRSRLLHSDYMNMTPRRPGPTRKHYQPYAPPRDFAAYRVKFSRSADAPAYKQGQNQLYNELNLGRREEYDVLDKRRGRDPEMGGKPRRKNPQEGLYNELQKDKMAEAYSEIGMKGERRRGKGHDGLYQGLSTATKDTYDALHMQALPPR
